Reference: PubChem BioAssay AID1224830 (NIAID, 2016)

Screen: 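Regulators of TLR4 signalling towards TNF-alpha in macrophage-like cells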 (primary screen)
Cells: human THP-1 monocytic leukaemia cells, TNF dual-luciferase reporter clone, PMA-differentiated to macrophage-like cells
Knock-down reagent: siRNA pool against human genes, 50 nM
Time to read-out: LPS for 4 h, given about 3 days after siRNA transfection
Treatment: bacterial LPS (TLR4 ligand), 10 ng/ml
Measured: 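TNF firefly reporter luminescence divided by renilla, normalised to the plate median, then turned into a robust z-score for each replicate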
Scale: TNF reporter robust z-score: higher = stronger TNF reporter response to LPS
Active means: 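Each well counts as active if its z-score is over 2.8 or under -1.5; controls are left without a call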
This is an unselected part of about 18,000 reagents. About 2,900 of them (16%) were called active. 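Calls are made per well; low scores hint the gene aids the LPS response, high scores that it dampens it.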 A number with no mark means an inactive call. Repeated entries: four replicate wells of each siRNA pool. Reagent sequences are not shown.

target | TNF reporter robust z-score
GPX6 (GeneID 257202) | 0.54
GPX6 (GeneID 257202) | 0.56
GPX6 (GeneID 257202) | 0.01
GPX6 (GeneID 257202) | 1.29
BCCIP (GeneID 56647) | -1.29
BCCIP (GeneID 56647) | 0.18
BCCIP (GeneID 56647) | -0.45
BCCIP (GeneID 56647) | -0.7
SDF4 (GeneID 51150) | -0.18
SDF4 (GeneID 51150) | 0.45
SDF4 (GeneID 51150) | 0.66
SDF4 (GeneID 51150) | 1.45
NCK2 (GeneID 8440) | 0.27
NCK2 (GeneID 8440) | 0.72
NCK2 (GeneID 8440) | 1.02
NCK2 (GeneID 8440) | 1.18
PTCHD4 (GeneID 442213) | -1.42
PTCHD4 (GeneID 442213) | -0.78
PTCHD4 (GeneID 442213) | -0.39
PTCHD4 (GeneID 442213) | -0.81
TRIM45 (GeneID 80263) | -0.6
TRIM45 (GeneID 80263) | -0.9
TRIM45 (GeneID 80263) | -1.43
TRIM45 (GeneID 80263) | 1.03
NRF1 (GeneID 4899) | 0.6
NRF1 (GeneID 4899) | 0.62
NRF1 (GeneID 4899) | 0.41
NRF1 (GeneID 4899) | 0.91
TRIM25 (GeneID 7706) | -1.66 (active)
TRIM25 (GeneID 7706) | -0.48
TRIM25 (GeneID 7706) | -0.45
TRIM25 (GeneID 7706) | 1.45
KCNJ4 (GeneID 3761) | -0.03
KCNJ4 (GeneID 3761) | -0.37
KCNJ4 (GeneID 3761) | -0.31
KCNJ4 (GeneID 3761) | 1.11
OR1M1 (GeneID 125963) | 1.05
OR1M1 (GeneID 125963) | 0.85
OR1M1 (GeneID 125963) | 0.87
OR1M1 (GeneID 125963) | 1.24
IFIT5 (GeneID 24138) | -0.34
IFIT5 (GeneID 24138) | 0.03
IFIT5 (GeneID 24138) | -1.07
IFIT5 (GeneID 24138) | -0.63
UPK3A (GeneID 7380) | 0.92
UPK3A (GeneID 7380) | 0.41
UPK3A (GeneID 7380) | 1.21
UPK3A (GeneID 7380) | -0.95
GLOD5 (GeneID 392465) | -0.56
GLOD5 (GeneID 392465) | 0.09
GLOD5 (GeneID 392465) | 0.53
GLOD5 (GeneID 392465) | 1.21
SLC25A4 (GeneID 291) | -0.77
SLC25A4 (GeneID 291) | 0.67
SLC25A4 (GeneID 291) | 1.29
SLC25A4 (GeneID 291) | 0.06
ANTXR1 (GeneID 84168) | -0.29
ANTXR1 (GeneID 84168) | 0.98
ANTXR1 (GeneID 84168) | 0.48
ANTXR1 (GeneID 84168) | -0.45
NAA40 (GeneID 79829) | -0.88
NAA40 (GeneID 79829) | 0.75
NAA40 (GeneID 79829) | -0.34
NAA40 (GeneID 79829) | -0.35
CYLC1 (GeneID 1538) | 2.03
CYLC1 (GeneID 1538) | -0.3
CYLC1 (GeneID 1538) | 1.11
CYLC1 (GeneID 1538) | 2.09
CFHR4 (GeneID 10877) | -0.57
CFHR4 (GeneID 10877) | -0.34
CFHR4 (GeneID 10877) | -0.24
CFHR4 (GeneID 10877) | -0.6
PTN (GeneID 5764) | -0.13
PTN (GeneID 5764) | 1.22
PTN (GeneID 5764) | 0.45
PTN (GeneID 5764) | 1.19
LRRC19 (GeneID 64922) | -0.73
LRRC19 (GeneID 64922) | -0.7
LRRC19 (GeneID 64922) | -0.12
LRRC19 (GeneID 64922) | -0.53
EBF2 (GeneID 64641) | 1.05
EBF2 (GeneID 64641) | 1.61
EBF2 (GeneID 64641) | 1.38
EBF2 (GeneID 64641) | 1.93
SCT (GeneID 6343) | -1.17
SCT (GeneID 6343) | -1.18
SCT (GeneID 6343) | -0.91
SCT (GeneID 6343) | -0.85
VPS13D (GeneID 55187) | -0.05
VPS13D (GeneID 55187) | -0.31
VPS13D (GeneID 55187) | -1.12
VPS13D (GeneID 55187) | -0.5
FAM149A (GeneID 25854) | -0.05
FAM149A (GeneID 25854) | -0.63
FAM149A (GeneID 25854) | -0.18
FAM149A (GeneID 25854) | -0.3
RYBP (GeneID 23429) | 1.56
RYBP (GeneID 23429) | 2.52
RYBP (GeneID 23429) | 0.67
RYBP (GeneID 23429) | 0.63
MTUS2 (GeneID 23281) | -0.91
MTUS2 (GeneID 23281) | -0.28
MTUS2 (GeneID 23281) | -0.44
MTUS2 (GeneID 23281) | -0.62
TYMP (GeneID 1890) | -0.54
TYMP (GeneID 1890) | -0.63
TYMP (GeneID 1890) | -0.9
TYMP (GeneID 1890) | -0.31
OR6K3 (GeneID 391114) | 0.86
OR6K3 (GeneID 391114) | -0.02
OR6K3 (GeneID 391114) | 0.51
OR6K3 (GeneID 391114) | -0.04

6 neighbouring records already listed:
target | TNF reporter robust z-score
GLOD5 (GeneID 392465) | 0.09
GLOD5 (GeneID 392465) | 0.53
GLOD5 (GeneID 392465) | 1.21
SLC25A4 (GeneID 291) | -0.77
SLC25A4 (GeneID 291) | 0.67
SLC25A4 (GeneID 291) | 1.29
